# Measurements as given in patent US20080255238A1, “COMPOSITION CONTAINING A THIOUREA DERIVATIVE FOR PREVENTING OR TREATING PRURITIC OR IRRITANT SKIN DISEASES” (AMOREPACIFIC CORPORATION, priority 2004, published 2008).
# Some of these results come from one statement about several compounds together.
# Test system: BALB/C mice
# Experiment: Itching induced by compound 48/80 (C48/80) in BALB/C mice, oral administration
# Format: in vivo
# Conditions: C48/80, BALB/C mice
# From the text: Itching Induced by Compound 48/80 (C48/80) in BALB/C Mice
# The frequency of scratching induced by an itching-inducing substance varies depending on mouse strain. For example, it was reported that BALB/C mice are less sensitive to histamines and serotonin than ICR mice (Inagaki et al., 2001, Skin Pharmacol. Appl. Skin Physiol., 14, pp 87-96). […] In this experiment, BALB/C mice received C48/80 to induce itching. One day before the experiment, the rostral part of the skin on the back of BALB/C mice (19˜21 g, 6˜12 mice/group) was clipped. After compound 1 was dissolved in HP-β-CD, and compounds 2 and 3 were dissolved in a physiological saline solution containing 10% ethanol and 10% Tween 80, the solutions were orally administered (10 ml/kg) to the mice. One hour after the administration, C48/80 (50 μg/50 μl/mouse) was dissolved in a physiological saline solution and injected intradermally into the back skin of mice. Immediately after the injection, the mice were housed in a transparent cage and then the frequency of scratching of the injected site by the hind paws was counted for 30 minutes. The frequency of scratching in test groups administered with the drugs was compared to that in a control group administered with C48/80 alone. The decrease in the frequency of scratching in the test groups was determined as an index of inhibitory effects on itching. The decrease in the frequency of scratching was expressed as a percentage of inhibition to determine inhibitory effects of each compound on itching.
row,SMILES,inhibitory effects on itching (in words)
1,"CC(C)(C)c1ccc(CNC(=S)NCc2ccc(NS(C)(=O)=O)c(F)c2)cc1 [Compound 1, 1-(4-t-butylbenzyl)-3-(3-fluoro-4-methanesulfonylaminobenzyl)thiourea]",antipruritic effects in a dose-dependent manner
2,"CC(C)(C)c1ccc(CNC(=S)NCc2ccc(NS(C)(=O)=O)c(Cl)c2)cc1 [Compound 2, 1-(4-t-butylbenzyl)-3-(3-chloro-4-methanesulfonylaminobenzyl)thiourea]",antipruritic effects in a dose-dependent manner
3,"Cc1cc(CNC(=S)NCc2ccc(C(C)(C)C)cc2)ccc1NS(C)(=O)=O [Compound 3, 1-(4-t-butylbenzyl)-3-(3-methyl-4-methanesulfonylaminobenzyl)thiourea]",antipruritic effects in a dose-dependent manner
